Article PMC9463131, “SLITRK1-mediated noradrenergic projection suppression in the neonatal prefrontal cortex” (Communications Biology, 2022)
Results are given in words; binding and its absence hold for the method and conditions named. Binding calls can cover weak binding; strength is not graded here. Where a sequence is shown, tags or fusion partners need not be part of it.

Biological target: T1, SLITRK1 ECD-immunoglobulin Fc domain-fusion protein (SLITRK1-WT-Fc) (human) (UniProt Q96PX8)
T1 sequence: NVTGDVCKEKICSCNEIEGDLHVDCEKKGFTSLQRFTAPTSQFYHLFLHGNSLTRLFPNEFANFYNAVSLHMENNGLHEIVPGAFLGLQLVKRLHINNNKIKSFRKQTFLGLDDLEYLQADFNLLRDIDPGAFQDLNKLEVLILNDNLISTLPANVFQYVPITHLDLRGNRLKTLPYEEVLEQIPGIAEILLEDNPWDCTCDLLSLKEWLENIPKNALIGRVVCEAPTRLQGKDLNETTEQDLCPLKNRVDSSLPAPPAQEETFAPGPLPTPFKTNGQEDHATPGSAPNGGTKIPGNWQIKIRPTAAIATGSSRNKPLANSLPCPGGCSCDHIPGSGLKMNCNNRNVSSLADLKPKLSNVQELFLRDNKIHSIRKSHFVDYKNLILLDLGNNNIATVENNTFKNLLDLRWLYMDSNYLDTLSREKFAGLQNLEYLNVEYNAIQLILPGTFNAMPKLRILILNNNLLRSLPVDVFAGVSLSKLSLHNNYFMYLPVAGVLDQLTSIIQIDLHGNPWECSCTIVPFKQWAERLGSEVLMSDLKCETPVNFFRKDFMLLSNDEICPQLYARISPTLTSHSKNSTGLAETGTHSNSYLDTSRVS
Test: pull-down; 10 pmol SLITRK1 ECD-Fc or IgFc captured on Protein A agarose; 7.5 pmol Neurofascin 155-His added, 1 h at 4 °C; 10 mM HEPES pH 7.4, 2 mM CaCl2, 1 mM MgCl2, 0.1% Triton X-100; blot with anti-His tag antibody; both purified

human Neurofascin ECD-His6 (8208-NF-050, R&D Systems) (domain or fragment)
binding: binds
